In US20050203288A1 (DEUTSCHES KREBSFORSCHUNGSZENTRUM STIFUNG DES OFFENTLICHEN …, published 2005) one finds binding data, which are given here for 11 molecules.

These are yes or no findings as the source states them, for the method shown. Some entries that bind do so weakly or less than the wild type.

One experiment has as its target livin (UniProt P04386). Briefly: yeast two-hybrid, peptide in trxA scaffold.
In the next experiment the target is T1, Livin-β (UniProt Q96CA5-2 1-280, limits assumed).
T1 construct: the beta isoform is meant; also called Livin (beta)
T1 sequence (looked up): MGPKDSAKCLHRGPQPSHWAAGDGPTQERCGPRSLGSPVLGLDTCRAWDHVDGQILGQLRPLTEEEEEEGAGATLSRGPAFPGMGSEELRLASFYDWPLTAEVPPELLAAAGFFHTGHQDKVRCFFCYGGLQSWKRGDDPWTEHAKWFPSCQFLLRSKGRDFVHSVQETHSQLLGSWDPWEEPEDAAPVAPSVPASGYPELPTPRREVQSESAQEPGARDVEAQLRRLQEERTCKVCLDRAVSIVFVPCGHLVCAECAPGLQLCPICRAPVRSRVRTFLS
Briefly: yeast two-hybrid.

On to RATYWFRSRYQVVHRSRLPYGPLIVVGIGALNLELNRTLLCS (peptide, not shown: large carriers) [SEQ ID NO 30], for which the binding entry with livin is on record as “binds”.
On the same count and under the same terms, next, LAGRHFSRVVDRIRYRLLWT (peptide, not shown: large carriers) [SEQ ID NO 33]: “binds”.
On to MPIPPLCRSAGRLLYLYTHY (peptide, not shown: large carriers) [SEQ ID NO 34], for which the binding entry in the experiment with livin is listed as “binds”.
In the case of ALLMFGCPNWFASWRLHLFI (peptide, not shown: large carriers) [SEQ ID NO 38], the binding result with livin is “binds”.
As for YKWRMGVYLSGVRLMRAFII (peptide, not shown: large carriers) [SEQ ID NO 4], the binding result in the experiment with livin is reported as “binds”.
For VSYRTCTAGGQMSRWRLFII (peptide, not shown: large carriers) [SEQ ID NO 5], the binding entry in the experiment with livin is recorded as “binds”.
Still for that read-out and setting: to KPWEYLRMFPWMRVARFFIW (peptide, not shown: large carriers) [SEQ ID NO 37] belongs “binds”; to WLGTFSGTCSTAFYFPLGVP (peptide, not shown: large carriers) [SEQ ID NO 7], “binds”.
The same measure, in the same setting: next, TNFRPSPTFHAILLWPNTFS (peptide, not shown: large carriers) [SEQ ID NO 8]: “binds”.

B1: peptide number 40 (peptide, not shown: large carriers)
chain: GSGCVRIRVGIVRRMLFLRFVFLVP
notes: that construct is not described for linear peptides
For B1, the binding entry in the experiment with Livin-β was “binds”.
As to MYSNVSVDVAADGVSCVCCSWSVQNDRPDSG (peptide, not shown: large carriers) [SEQ ID NO 3], in the experiment with livin, the binding entry was “binds”.
